{"source": "patent US20180282819A1", "about": "“Targeting the Histone Pathway to Detect and Overcome Anthracyclin Resistance” (ONTARIO INSTITUTE FOR CANCER RESEARCH (OICR), priority 2015, published 2018)", "origin": "cited, not measured here", "system": "gastric cancer cells", "conditions": "Regel et al. 2012; cited from earlier work", "note": "For at least one compound, name, drawing or mass did not settle the structure.", "data": [{"smiles": "Cc1[nH]c2ccccc2c1CCNCc1ccc(/C=C/C(=O)NO)cc1", "note": "[Panobinostat]", "values": [{"measurement": "sensitization to anthracyclines", "result": "sensitizes gastric cancer cells to anthracyclines"}]}]}
